Data as given in PubChem BioAssay AID1671195 (Yale University, 2021).
Screen: 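Genes whose knockdown alters LDL uptake in liver cancer cells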 (primary screen). System: human Huh7 hepatoma cells. Reagent: siRNA pool against human genes, 18 nM. Time to read-out: about 2 to 2.5 days of knockdown, then 8 h LDL uptake. Conditions: DiI-labelled LDL at 30 µg/ml for 8 h, in lipoprotein-deficient serum medium. Measured: 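Per-cell DiI-LDL intensity by automated imaging; well means scaled to the plate median and given as a robust z-score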. Scale: robust z-score: higher = more LDL uptake after knockdown. Active means: 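a gene counts as active if at least two replicate z-scores exceed ±2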.
This is one part, drawn at random, of about 22,000 reagents. About 1,510 of them (6.9%) count as active. 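Active includes knockdowns raising or lowering LDL uptake; positive z-scores mean more uptake, negative mean less.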 Unmarked entries are inactive.

The opening 2 entries, to show the layout:
target gene	robust z-score, replicate 1	robust z-score, replicate 2	robust z-score, replicate 3
VARS1 (valyl-tRNA synthetase 1)	0.753	1.46	0.593
USP49 (ubiquitin specific peptidase 49)	-1.16	-1.5	-1.23

The list itself, from the first entry:
target gene	robust z-score, replicate 1	robust z-score, replicate 2	robust z-score, replicate 3
VARS1 (valyl-tRNA synthetase 1)	0.753	1.46	0.593
USP49 (ubiquitin specific peptidase 49)	-1.16	-1.5	-1.23
CTSL (cathepsin L)	1.11	0.791	0.436
SF3B5 (splicing factor 3b subunit 5)	-0.522	-1.05	-0.691
FXYD2 (FXYD domain containing ion transport regulator 2)	-1.56	-1.27	-1.53
EIF4H (eukaryotic translation initiation factor 4H)	-0.0675	0.0111	-0.263
LOC147975 (retired record)	-0.776	-0.644	-0.774
FKBP1A (FKBP prolyl isomerase 1A)	0.0486	-0.00617	0.187
LOC343717 (retired record)	-0.0504	0.0128	0.25
MCTS1 (MCTS1 re-initiation and release factor)	1.3	1.59	1.42
ALG1 (ALG1 chitobiosyldiphosphodolichol beta-mannosyltransferase)	-0.0675	0.222	-0.641
PWP2 (PWP2 small subunit processome component)	-0.109	0.116	0.0312
TTN (titin)	0.614	0.0121	-0.0381
LOC400790 (retired record)	-1.38	-1.34	-1.84
SLC25A15	-0.623	-1.39	-0.871
GZMA (granzyme A)	0.688	2.09	1.19
FUT7 (fucosyltransferase 7)	0.535	-0.367	-0.438
RAB11FIP2 (RAB11 family interacting protein 2)	0.313	-0.737	0.41
IFT80 (intraflagellar transport 80)	-0.641	-0.759	1.49
OR4N2 (olfactory receptor family 4 subfamily N member 2)	-1.14	-1.03	-1.24
GRK1 (G protein-coupled receptor kinase 1)	-1.17	-1.15	-1.42
CASP14 (caspase 14)	-0.788	0.377	0.209
AOC2 (amine oxidase copper containing 2)	-1.05	-0.44	-0.549
OR4K2 (olfactory receptor family 4 subfamily K member 2)	-0.875	-0.937	-1.1
CAPN15 (calpain 15)	-0.954	-0.748	-0.886
LOC441647 (retired record)	0.127	0.494	0.221
AKT1 (AKT serine/threonine kinase 1)	0.369	-0.446	-0.334
PRPSAP2 (phosphoribosyl pyrophosphate synthetase associated protein 2)	3 (active)	3.37	3.41
LYPLAL1 (lysophospholipase like 1)	-0.305	0.25	0.337
CREB3L2 (cAMP responsive element binding protein 3 like 2)	-0.393	-0.359	-0.519
PRR35 (proline rich 35)	-0.602	-0.547	-0.364
APOC2 (apolipoprotein C2)	-1.54	-1.73	-1.51
MCFD2	1.06	0.734	0.91
VMA21 (vacuolar ATPase assembly factor VMA21)	1.41	1.26	1.74
ACSL5 (acyl-CoA synthetase long chain family member 5)	-1.07	-0.579	-0.963
IL31 (interleukin 31)	-0.0144	0.115	-0.256
E2F5 (E2F transcription factor 5)	1.47	1.09	0.134
TIGIT (T cell immunoreceptor with Ig and ITIM domains)	0.629	0.737	0.795
TCEANC	-0.725	-0.722	-1.26
LOC390633 (retired record)	-0.0912	-0.0472	0.135
ATXN1 (ataxin 1)	-0.201	-0.362	-0.483
CENPL (centromere protein L)	-0.346	0.405	0.00838
UBA5 (ubiquitin like modifier activating enzyme 5)	2.97 (active)	1.24	3.61
HDGFL2 (HDGF like 2)	0.13	0.348	-0.07
MED13 (mediator complex subunit 13)	-0.0575	2.03	-0.108
KLK14 (kallikrein related peptidase 14)	0.255	0.45	0.766
